Source: the supplement of paper PMC10849652
The other results are listed elsewhere or left out.

Amino acid sequences for entries named in this document (tags omitted). A change or cut given only in a name is not applied to a line headed by its entry.
UniProt Q8WU79: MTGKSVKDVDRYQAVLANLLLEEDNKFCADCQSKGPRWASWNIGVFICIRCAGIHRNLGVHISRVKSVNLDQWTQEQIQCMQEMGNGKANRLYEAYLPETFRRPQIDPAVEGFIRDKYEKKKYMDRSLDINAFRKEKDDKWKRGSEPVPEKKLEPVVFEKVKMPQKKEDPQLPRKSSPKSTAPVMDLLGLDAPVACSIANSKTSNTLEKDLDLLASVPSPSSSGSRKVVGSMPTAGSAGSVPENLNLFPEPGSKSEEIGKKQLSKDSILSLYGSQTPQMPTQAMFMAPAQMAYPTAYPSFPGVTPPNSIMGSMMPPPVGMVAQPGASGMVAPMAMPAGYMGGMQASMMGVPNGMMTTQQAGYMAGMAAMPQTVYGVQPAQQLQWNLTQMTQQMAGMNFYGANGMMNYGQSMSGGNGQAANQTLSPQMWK
UniProt O95295: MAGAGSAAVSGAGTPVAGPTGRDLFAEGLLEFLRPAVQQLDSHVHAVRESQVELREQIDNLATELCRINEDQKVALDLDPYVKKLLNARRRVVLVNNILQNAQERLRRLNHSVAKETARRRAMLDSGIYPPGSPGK
UniProt Q96BD0: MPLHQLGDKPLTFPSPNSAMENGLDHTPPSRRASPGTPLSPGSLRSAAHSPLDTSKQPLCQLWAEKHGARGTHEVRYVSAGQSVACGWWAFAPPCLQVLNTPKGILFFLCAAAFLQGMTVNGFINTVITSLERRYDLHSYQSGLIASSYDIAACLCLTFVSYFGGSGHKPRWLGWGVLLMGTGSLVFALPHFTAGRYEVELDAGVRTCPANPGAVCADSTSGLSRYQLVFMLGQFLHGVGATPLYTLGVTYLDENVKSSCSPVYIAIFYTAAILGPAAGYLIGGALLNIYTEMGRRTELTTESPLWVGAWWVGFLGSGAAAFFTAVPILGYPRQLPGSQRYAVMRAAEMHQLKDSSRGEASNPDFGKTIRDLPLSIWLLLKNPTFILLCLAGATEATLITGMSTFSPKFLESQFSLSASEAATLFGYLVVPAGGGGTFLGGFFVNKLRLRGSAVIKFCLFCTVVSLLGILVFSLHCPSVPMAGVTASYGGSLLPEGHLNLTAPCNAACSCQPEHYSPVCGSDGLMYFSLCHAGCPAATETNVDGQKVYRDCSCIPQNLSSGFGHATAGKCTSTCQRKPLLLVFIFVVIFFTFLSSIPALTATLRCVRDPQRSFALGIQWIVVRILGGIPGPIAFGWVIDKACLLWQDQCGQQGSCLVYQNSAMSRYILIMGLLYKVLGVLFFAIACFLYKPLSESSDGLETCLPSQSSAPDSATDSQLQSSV
UniProt O60271: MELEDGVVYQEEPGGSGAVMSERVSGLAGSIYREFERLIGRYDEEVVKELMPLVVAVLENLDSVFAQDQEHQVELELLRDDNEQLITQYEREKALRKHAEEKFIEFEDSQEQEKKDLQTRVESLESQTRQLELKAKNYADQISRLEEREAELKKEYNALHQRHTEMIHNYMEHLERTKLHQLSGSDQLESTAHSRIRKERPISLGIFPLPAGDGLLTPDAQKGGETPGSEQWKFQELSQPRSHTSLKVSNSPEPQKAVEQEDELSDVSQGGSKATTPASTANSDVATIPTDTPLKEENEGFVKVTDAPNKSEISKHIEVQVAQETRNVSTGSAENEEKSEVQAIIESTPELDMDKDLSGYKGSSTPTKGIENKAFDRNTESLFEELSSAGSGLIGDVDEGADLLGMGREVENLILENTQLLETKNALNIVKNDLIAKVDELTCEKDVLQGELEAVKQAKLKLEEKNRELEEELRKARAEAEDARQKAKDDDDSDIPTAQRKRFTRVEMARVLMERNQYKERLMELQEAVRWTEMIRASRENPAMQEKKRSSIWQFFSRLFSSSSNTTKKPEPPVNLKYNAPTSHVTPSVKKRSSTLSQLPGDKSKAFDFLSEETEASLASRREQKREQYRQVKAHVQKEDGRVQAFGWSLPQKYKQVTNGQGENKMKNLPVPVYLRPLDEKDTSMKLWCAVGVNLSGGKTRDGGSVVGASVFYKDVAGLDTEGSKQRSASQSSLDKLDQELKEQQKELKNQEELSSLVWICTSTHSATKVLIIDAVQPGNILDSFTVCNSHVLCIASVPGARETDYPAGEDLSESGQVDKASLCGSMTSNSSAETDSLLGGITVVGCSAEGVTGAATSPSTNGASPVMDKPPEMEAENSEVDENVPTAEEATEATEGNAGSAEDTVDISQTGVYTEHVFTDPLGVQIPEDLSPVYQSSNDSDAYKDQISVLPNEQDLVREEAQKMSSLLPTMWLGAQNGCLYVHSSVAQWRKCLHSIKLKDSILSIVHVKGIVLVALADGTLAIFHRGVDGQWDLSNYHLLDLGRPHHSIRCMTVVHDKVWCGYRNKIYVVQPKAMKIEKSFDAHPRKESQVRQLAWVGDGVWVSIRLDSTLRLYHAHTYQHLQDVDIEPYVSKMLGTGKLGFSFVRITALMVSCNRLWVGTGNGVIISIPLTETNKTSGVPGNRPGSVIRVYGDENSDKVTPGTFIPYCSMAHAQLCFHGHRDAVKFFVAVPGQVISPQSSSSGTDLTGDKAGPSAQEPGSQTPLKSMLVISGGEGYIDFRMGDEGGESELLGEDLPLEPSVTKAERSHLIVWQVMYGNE
UniProt Q02447: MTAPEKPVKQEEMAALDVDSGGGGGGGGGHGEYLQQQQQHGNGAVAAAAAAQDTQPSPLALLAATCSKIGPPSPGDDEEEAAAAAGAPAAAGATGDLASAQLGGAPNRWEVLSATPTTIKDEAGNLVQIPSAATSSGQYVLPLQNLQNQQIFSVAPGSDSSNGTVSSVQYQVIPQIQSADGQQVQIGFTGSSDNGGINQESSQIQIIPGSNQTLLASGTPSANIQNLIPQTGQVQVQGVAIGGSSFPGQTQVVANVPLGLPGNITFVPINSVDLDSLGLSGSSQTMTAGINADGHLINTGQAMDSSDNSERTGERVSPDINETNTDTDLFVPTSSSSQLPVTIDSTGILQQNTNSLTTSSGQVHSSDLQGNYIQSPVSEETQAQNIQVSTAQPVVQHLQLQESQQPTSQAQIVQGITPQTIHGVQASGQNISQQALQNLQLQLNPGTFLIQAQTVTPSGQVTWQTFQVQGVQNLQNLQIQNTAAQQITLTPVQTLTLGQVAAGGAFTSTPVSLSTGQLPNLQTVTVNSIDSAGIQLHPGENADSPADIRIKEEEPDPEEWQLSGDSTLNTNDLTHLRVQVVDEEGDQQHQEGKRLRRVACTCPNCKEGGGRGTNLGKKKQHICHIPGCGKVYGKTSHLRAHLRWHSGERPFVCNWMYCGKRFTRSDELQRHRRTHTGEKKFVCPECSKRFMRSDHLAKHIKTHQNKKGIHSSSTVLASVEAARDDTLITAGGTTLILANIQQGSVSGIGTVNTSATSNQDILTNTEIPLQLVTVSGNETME
UniProt O95149, whole entry, looked up: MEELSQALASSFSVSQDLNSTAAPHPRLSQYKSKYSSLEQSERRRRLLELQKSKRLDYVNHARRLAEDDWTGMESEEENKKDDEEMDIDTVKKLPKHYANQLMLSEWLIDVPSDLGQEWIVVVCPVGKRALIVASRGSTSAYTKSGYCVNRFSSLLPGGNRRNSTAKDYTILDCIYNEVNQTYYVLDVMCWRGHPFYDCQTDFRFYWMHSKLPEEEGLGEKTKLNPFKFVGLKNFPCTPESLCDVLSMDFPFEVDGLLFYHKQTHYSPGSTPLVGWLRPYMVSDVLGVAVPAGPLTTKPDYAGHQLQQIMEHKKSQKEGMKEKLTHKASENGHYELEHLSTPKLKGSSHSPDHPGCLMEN
UniProt Q96R06: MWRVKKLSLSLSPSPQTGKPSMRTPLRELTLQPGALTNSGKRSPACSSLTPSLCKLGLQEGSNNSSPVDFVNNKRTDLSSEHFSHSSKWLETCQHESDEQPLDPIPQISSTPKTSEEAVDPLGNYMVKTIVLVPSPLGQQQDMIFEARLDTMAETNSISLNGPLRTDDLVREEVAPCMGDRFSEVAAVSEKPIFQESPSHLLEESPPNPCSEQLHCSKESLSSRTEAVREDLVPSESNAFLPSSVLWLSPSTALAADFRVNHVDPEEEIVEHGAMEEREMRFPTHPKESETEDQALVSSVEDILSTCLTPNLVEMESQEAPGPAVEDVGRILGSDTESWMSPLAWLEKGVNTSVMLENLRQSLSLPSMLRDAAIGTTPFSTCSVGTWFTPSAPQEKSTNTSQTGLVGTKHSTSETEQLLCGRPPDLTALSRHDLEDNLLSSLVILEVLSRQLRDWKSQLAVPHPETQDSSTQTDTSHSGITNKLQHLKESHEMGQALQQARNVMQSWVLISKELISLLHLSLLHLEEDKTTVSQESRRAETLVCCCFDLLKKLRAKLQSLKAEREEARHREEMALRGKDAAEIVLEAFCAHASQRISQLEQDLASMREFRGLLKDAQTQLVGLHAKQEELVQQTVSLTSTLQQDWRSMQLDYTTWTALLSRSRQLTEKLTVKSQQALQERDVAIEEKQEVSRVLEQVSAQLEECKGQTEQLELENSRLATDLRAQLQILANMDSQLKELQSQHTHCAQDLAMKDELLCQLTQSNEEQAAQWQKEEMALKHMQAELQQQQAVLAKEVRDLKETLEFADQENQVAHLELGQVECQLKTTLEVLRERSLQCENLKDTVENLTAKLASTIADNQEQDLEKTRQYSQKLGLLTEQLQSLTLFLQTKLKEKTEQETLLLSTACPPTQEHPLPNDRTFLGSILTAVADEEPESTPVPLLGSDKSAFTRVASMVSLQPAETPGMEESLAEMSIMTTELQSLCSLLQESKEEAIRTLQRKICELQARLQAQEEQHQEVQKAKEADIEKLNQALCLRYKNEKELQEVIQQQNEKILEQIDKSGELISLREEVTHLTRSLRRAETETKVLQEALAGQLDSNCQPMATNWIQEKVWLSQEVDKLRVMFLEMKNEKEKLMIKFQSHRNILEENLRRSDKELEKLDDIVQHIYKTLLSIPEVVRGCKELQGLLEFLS
UniProt Q14BN4: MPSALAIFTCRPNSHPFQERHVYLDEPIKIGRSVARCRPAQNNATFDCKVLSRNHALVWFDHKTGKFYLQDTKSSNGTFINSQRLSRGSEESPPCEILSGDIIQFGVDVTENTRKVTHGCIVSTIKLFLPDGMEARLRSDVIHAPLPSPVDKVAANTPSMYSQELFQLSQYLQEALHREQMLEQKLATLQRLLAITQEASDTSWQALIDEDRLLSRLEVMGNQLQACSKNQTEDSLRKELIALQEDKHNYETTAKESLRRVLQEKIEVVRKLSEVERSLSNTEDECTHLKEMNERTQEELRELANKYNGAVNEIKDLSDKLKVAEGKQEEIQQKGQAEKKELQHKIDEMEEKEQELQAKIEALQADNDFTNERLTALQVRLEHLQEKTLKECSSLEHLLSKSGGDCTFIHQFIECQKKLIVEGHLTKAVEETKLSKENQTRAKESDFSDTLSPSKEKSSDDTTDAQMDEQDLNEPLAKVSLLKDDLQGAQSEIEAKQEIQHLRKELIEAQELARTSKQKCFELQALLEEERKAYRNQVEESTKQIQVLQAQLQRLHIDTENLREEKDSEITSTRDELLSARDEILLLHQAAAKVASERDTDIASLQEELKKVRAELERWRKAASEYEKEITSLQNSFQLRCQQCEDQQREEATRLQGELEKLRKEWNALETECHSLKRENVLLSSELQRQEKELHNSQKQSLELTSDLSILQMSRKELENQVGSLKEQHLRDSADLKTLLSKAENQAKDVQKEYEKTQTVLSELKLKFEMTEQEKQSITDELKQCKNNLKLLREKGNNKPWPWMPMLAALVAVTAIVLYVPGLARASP

What was measured:
Assay in all cases: log2 fold change, soluble protein after heating vs DMSO (PISA); higher = thermal stabilisation; K562 cells, 10 uM, 30 min; active = over 0.2 and 3.5 SD of the protein, either way, in both replicates (recomputed)
[1] = compound: CC1=C(C=C(C=C1)NC(=O)C2=CC(=CC=C2)C(C)(C)C#N)NC3=CC4=C(C=C3)N=CN(C4=O)C
Outline: (§1)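 Thermal stability values are relative to control samples and come from duplicates. They are expressed as log2 fold changes. For measurement, K562 cells (2×10^6 cells/mL) received 10 μM compound for 30 min, and aliquots were heated for 3 min over 48°C-58°C, pooled, and extracted at 4°C in PBS with 0.5% NP-40. Soluble protein, the supernatant after 21,000xg for 90 min, was quantified by TMTpro 16plex LC-MS/MS with equalised channel sums.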

[2] = compound: CC1=C(C=C(C=C1)NC(=O)C2=CC(=CC=C2)N(C)C)NC(=O)C3=CC=C(C=C3)O
Outline: as §1

[3] = compound: CC1=CC=C(C=C1)SC2=C3C=C(SC3=CN=C2)C(=O)N
Outline: as §1

[4] = compound: CC1=NC(=CC=C1)C2=C(N=C(N2)C(C)(C)C)C3=CC4=NC=CN=C4C=C3
Outline: as §1

Nexturastat A = compound: CCCCN(Cc1ccc(C(=O)NO)cc1)C(=O)Nc1ccccc1 [Nexturastat A]
Outline: as §1

vemurafenib = compound: CCCS(=O)(=O)Nc1ccc(F)c(C(=O)c2c[nH]c3ncc(-c4ccc(Cl)cc4)cc23)c1F [vemurafenib]
Outline: as §1

[5] = compound: CCCS(=O)(=O)Nc1ccc(F)c(C(=O)c2c[nH]c3ncc(Cl)cc23)c1F
Outline: as §1

[6] = compound: CCCc1cc(C)[nH]c(=O)c1CNC(=O)c1cc(-c2ccnc(N3CCN(C)CC3)c2)cc2c1cnn2C(C)C
Outline: as §1

givinostat = compound: CCN(CC)Cc1ccc2cc(COC(=O)Nc3ccc(C(=O)NO)cc3)ccc2c1 [givinostat]
Outline: as §1

barasertib = compound: CCN(CCCOc1ccc2c(Nc3cc(CC(=O)Nc4cccc(F)c4)[nH]n3)ncnc2c1)CCOP(=O)(O)O [barasertib]
Outline: as §1

[7] = compound: CC[C@@H]1C(=O)N(C)c2cnc(Nc3ccc(C(=O)NC4CCN(C)CC4)cc3OC)nc2N1C1CCCC1
Outline: as §1

volasertib = compound: CC[C@@H]1C(=O)N(C)c2cnc(Nc3ccc(C(=O)N[C@H]4CC[C@H](N5CCN(CC6CC6)CC5)CC4)cc3OC)nc2N1C(C)C [volasertib]
Outline: as §1

[8] = compound: CC[C@H](C)N1C=C(C2=C(C=C(C=C21)C3=CN=C(C=C3)N4CCNCC4)C(=O)NCC5=C(C=C(NC5=O)C)C)C
Outline: as §1

epoxomicin = compound: CC[C@H](C)[C@@H](C(=O)N[C@@H]([C@@H](C)O)C(=O)N[C@@H](CC(C)C)C(=O)[C@]1(CO1)C)NC(=O)[C@H]([C@@H](C)CC)N(C)C(=O)C [epoxomicin]
Outline: as §1

[9] = compound: CCn1cc(-c2ccnc3[nH]c(-c4cccc(CN(C)C)c4)cc23)c(-c2ccc(NC(=O)N(C)C)cc2)n1
Outline: as §1

[10] = compound: CN(C)CC(=O)Nc1ccc2[nH]c(=O)c3ccccc3c2c1
Outline: as §1

[11] = compound: CN1C2=C(C3=C1C(=O)N(N=C3)CC4=CC(=CC=C4)N)SC(=C2)S(=O)C
Outline: as §1

[12] = compound: CN1CCC(CNc2ccc3ncc(-c4cccc(OC(F)(F)F)c4)n3n2)CC1
Outline: as §1

[13] = compound: CCn1c(C(=O)N(C2CC2)C2CC2)cc2c3c(ncn3C)c(Nc3cc(C)n(C)n3)nc21
Outline: as §1

rosiglitazone = compound: CN(CCOC1=CC=C(C=C1)C[C@H]2C(=O)NC(=O)S2)C3=CC=CC=N3 (racemic) [rosiglitazone]
Outline: as §1

Row | Target | log2 fold change [1] | log2 fold change [2] | log2 fold change [3] | log2 fold change [4] | log2 fold change (Nexturastat A) | log2 fold change (vemurafenib) | log2 fold change [5] | log2 fold change [6] | log2 fold change (givinostat) | log2 fold change (barasertib) | log2 fold change [7] | log2 fold change (volasertib) | log2 fold change [8] | log2 fold change (epoxomicin) | log2 fold change [9] | log2 fold change [10] | log2 fold change [11] | log2 fold change [12] | log2 fold change [13] | log2 fold change (rosiglitazone)
1 | SMAP2 (UniProt Q8WU79) | inactive: -0.033 | inactive: -0.063 | inactive: 0.016 | inactive: -0.054 | inactive: 0.029 | inactive: 0.058 | inactive: 0.055 | inactive: 0.043 | inactive: 0.04 | inactive: 0.052 | inactive: -0.054 | active: -0.3 | inactive: 0.131 | inactive: 0.056 | inactive: -0.009 | inactive: 0.008 | inactive: -0.021 | inactive: 0.015 | – | –
2 | SNAPIN (UniProt O95295) | inactive: -0.05 | inactive: 0 | inactive: -0.023 | inactive: 0.001 | inactive: -0.101 | inactive: 0.078 | inactive: -0.034 | inactive: -0.019 | inactive: -0.047 | inactive: 0.028 | inactive: -0.021 | inactive: -0.091 | inactive: 0.019 | inactive: 0.042 | inactive: -0.126 | inactive: 0.019 | inactive: 0.009 | inactive: 0.021 | inactive: -0.02 | inactive: 0.07
3 | SLCO4A1 (UniProt Q96BD0) | inactive: 0.012 | inactive: 0.088 | inactive: -0.021 | inactive: -0.323 | inactive: -0.003 | inactive: -0.363 | inactive: -0.016 | inactive: 0.05 | inactive: 0.005 | inactive: 0.009 | inactive: 0.098 | inactive: 0.064 | inactive: -0.213 | inactive: 0.044 | inactive: -0.191 | inactive: 0.004 | – | inactive: 0.059 | inactive: 0.114 | inactive: -0.293
4 | SPAG9 (UniProt O60271) | inactive: 0.023 | inactive: -0.045 | inactive: 0.002 | inactive: 0.004 | inactive: 0.039 | inactive: 0.028 | inactive: 0.053 | inactive: 0.014 | inactive: 0.06 | inactive: 0.037 | inactive: -0.039 | inactive: -0.168 | inactive: 0.046 | inactive: 0.028 | inactive: 0.02 | inactive: 0.02 | inactive: -0.009 | inactive: -0.203 | – | –
5 | SP3 (UniProt Q02447) | inactive: -0.008 | inactive: -0.126 | inactive: -0.041 | inactive: -0.058 | inactive: -0.003 | inactive: -0.038 | inactive: 0.012 | inactive: -0.052 | inactive: -0.219 | inactive: 0.011 | inactive: 0.03 | inactive: 0.104 | inactive: -0.019 | inactive: -0.194 | inactive: 0.068 | inactive: -0.074 | inactive: 0.058 | inactive: 0.028 | – | –
6 | SNUPN (UniProt O95149) | inactive: -0.078 | inactive: 0.052 | inactive: 0.013 | inactive: 0.026 | inactive: -0.037 | inactive: -0.024 | inactive: -0.065 | inactive: 0.013 | inactive: -0.017 | inactive: 0.024 | inactive: -0.133 | active: -0.296 | inactive: 0.014 | inactive: -0.013 | inactive: -0.076 | inactive: 0.003 | inactive: -0.01 | inactive: -0.004 | – | –
7 | SPAG5 (UniProt Q96R06) | inactive: 0.127 | inactive: -0.048 | inactive: -0.016 | inactive: -0.078 | inactive: 0.179 | inactive: 0.129 | inactive: 0.111 | inactive: 0.167 | inactive: 0.125 | inactive: 0.048 | inactive: -0.071 | inactive: -0.677 | inactive: 0.105 | inactive: -0.126 | inactive: 0.082 | inactive: -0.044 | inactive: 0.275 | inactive: -0.085 | inactive: -0.155 | inactive: -0.036
8 | SLMAP (UniProt Q14BN4) | inactive: -0.088 | inactive: -0.026 | inactive: -0.076 | inactive: -0.039 | inactive: 0.123 | inactive: -0.014 | inactive: -0.018 | inactive: 0.025 | inactive: 0.084 | inactive: 0.055 | inactive: 0.035 | inactive: -0.123 | inactive: -0.003 | inactive: -0.002 | inactive: -0.002 | inactive: 0.02 | inactive: 0.103 | inactive: 0.015 | inactive: -0.106 | inactive: -0.05
